Experimental data from paper PMC4882005.
These are yes or no findings as the source states them, for the method shown. In cells and extracts the contact can be indirect. Some entries that bind do so weakly or less than the wild type. For some assays here: Sequences can lack the tags named with a protein.

By UniProt entry, the sequences of proteins in these tests, tags left out.
UniProt Q9H172: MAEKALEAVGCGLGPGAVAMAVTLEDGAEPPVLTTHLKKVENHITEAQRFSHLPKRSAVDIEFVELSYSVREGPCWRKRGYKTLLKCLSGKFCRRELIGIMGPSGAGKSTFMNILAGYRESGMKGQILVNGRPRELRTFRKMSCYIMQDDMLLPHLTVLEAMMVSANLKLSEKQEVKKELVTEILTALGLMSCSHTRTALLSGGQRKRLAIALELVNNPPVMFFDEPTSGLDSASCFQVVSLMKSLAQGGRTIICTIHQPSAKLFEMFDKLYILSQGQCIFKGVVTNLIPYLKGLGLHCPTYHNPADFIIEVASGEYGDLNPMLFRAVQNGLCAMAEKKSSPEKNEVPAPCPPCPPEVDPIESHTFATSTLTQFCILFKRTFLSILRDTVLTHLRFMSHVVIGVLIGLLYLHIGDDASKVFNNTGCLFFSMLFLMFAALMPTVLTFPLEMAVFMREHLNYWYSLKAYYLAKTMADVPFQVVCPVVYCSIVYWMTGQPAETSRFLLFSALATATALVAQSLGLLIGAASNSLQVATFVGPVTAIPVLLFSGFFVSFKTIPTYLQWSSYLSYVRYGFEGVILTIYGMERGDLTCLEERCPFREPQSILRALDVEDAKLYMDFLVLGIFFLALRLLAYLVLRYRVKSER

T1: GFP-ABCG2, Q9UNQ0
T1 chain: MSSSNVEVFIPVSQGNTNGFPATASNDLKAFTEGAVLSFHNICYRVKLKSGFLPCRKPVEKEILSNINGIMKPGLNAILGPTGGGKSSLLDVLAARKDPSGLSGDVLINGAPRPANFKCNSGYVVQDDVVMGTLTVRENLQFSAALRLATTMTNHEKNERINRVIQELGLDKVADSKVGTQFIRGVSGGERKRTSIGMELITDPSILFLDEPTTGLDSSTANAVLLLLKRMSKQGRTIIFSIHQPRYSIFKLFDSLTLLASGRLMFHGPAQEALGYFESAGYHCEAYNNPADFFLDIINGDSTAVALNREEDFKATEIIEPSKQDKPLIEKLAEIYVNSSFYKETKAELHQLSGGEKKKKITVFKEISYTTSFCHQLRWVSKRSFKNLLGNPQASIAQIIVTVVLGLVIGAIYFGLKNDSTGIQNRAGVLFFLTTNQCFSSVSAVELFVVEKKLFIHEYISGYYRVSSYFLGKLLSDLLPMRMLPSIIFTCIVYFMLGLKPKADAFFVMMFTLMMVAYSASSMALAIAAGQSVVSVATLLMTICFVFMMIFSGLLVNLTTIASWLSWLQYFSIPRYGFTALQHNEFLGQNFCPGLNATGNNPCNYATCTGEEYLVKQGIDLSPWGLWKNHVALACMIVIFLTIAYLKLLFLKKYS


How the values were obtained:
GFP-ABCG2, Q9UNQ0 = biological target: T1, GFP-ABCG2, Q9UNQ0; assay: co-IP; HEK293 co-transfected with the GFP-tagged and the untagged protein (untagged in excess), lysed 24 h after transfection in 50 mM Tris pH 7.4, 150 mM NaCl, 0.5% NP-40; precipitated with anti-GFP on protein G-sepharose, 2 h at 4°C; Western blot of the precipitate; conditions: remark: other sources report otherwise
[1] = biological target: ABCG4 (wild type, untagged) (UniProt Q9H172); assay: co-IP; HEK293 co-transfected with ABCG4 and an ABCG1 or ABCG2 variant, lysed in 50 mM Tris pH 7.4, 150 mM NaCl, 0.5% NP-40; precipitated with anti-ABCG4 monoclonal antibody on protein G-sepharose, 2 h at 4°C; Western blot of the precipitate

binding (GFP-ABCG2, Q9UNQ0) | binding [1] | Binder
binds | – | ABCG2 (wild type, untagged), Q9UNQ0-1 1-655 (protein) MSSSNVEVFIPVSQGNTNGFPATASNDLKAFTEGAVLSFHNICYRVKLKSGFLPCRKPVEKEILSNINGIMKPGLNAILGPTGGGKSSLLDVLAARKDPSGLSGDVLINGAPRPANFKCNSGYVVQDDVVMGTLTVRENLQFSAALRLATTMTNHEKNERINRVIQELGLDKVADSKVGTQFIRGVSGGERKRTSIGMELITDPSILFLDEPTTGLDSSTANAVLLLLKRMSKQGRTIIFSIHQPRYSIFKLFDSLTLLASGRLMFHGPAQEALGYFESAGYHCEAYNNPADFFLDIINGDSTAVALNREEDFKATEIIEPSKQDKPLIEKLAEIYVNSSFYKETKAELHQLSGGEKKKKITVFKEISYTTSFCHQLRWVSKRSFKNLLGNPQASIAQIIVTVVLGLVIGAIYFGLKNDSTGIQNRAGVLFFLTTNQCFSSVSAVELFVVEKKLFIHEYISGYYRVSSYFLGKLLSDLLPMRMLPSIIFTCIVYFMLGLKPKADAFFVMMFTLMMVAYSASSMALAIAAGQSVVSVATLLMTICFVFMMIFSGLLVNLTTIASWLSWLQYFSIPRYGFTALQHNEFLGQNFCPGLNATGNNPCNYATCTGEEYLVKQGIDLSPWGLWKNHVALACMIVIFLTIAYLKLLFLKKYS
– | no binding | ABCG2 K86M, inactive form (protein, UniProt Q9UNQ0-1 1-655) MSSSNVEVFIPVSQGNTNGFPATASNDLKAFTEGAVLSFHNICYRVKLKSGFLPCRKPVEKEILSNINGIMKPGLNAILGPTGGGMSSLLDVLAARKDPSGLSGDVLINGAPRPANFKCNSGYVVQDDVVMGTLTVRENLQFSAALRLATTMTNHEKNERINRVIQELGLDKVADSKVGTQFIRGVSGGERKRTSIGMELITDPSILFLDEPTTGLDSSTANAVLLLLKRMSKQGRTIIFSIHQPRYSIFKLFDSLTLLASGRLMFHGPAQEALGYFESAGYHCEAYNNPADFFLDIINGDSTAVALNREEDFKATEIIEPSKQDKPLIEKLAEIYVNSSFYKETKAELHQLSGGEKKKKITVFKEISYTTSFCHQLRWVSKRSFKNLLGNPQASIAQIIVTVVLGLVIGAIYFGLKNDSTGIQNRAGVLFFLTTNQCFSSVSAVELFVVEKKLFIHEYISGYYRVSSYFLGKLLSDLLPMRMLPSIIFTCIVYFMLGLKPKADAFFVMMFTLMMVAYSASSMALAIAAGQSVVSVATLLMTICFVFMMIFSGLLVNLTTIASWLSWLQYFSIPRYGFTALQHNEFLGQNFCPGLNATGNNPCNYATCTGEEYLVKQGIDLSPWGLWKNHVALACMIVIFLTIAYLKLLFLKKYS
